The list is a part of this screen's results and no random one: it is rich in T/C values a quarter to a half above the control, in often repeated tests (any T/C) and in doses without a T/C. Other doses and runs of a compound stand elsewhere. T/C: endpoint of the treated group in % of that of the vehicle group. Some doses have a count of surviving animals in place of a T/C: the source files T/C as zero there, which appears to mark a toxic dose or a test without result, not a measured value. Some survivor counts are full or nearly so, which does not show that the dose was tolerated: survival well below the control is almost never listed, so the zero probably covers shortened survival too. Counts of survivors are from the toxicity check (mostly the fifth day) where no day follows; animals may have died later. Schedule codes are those of the source, read here as Q, the interval in days (D) or hours (H), X, the number of doses. Some molecules as drawn cover several salts, stereoisomers or complexes of the source; a dose is that of the sample tested. For survival time, the PubChem record calls one and a half times the control and up active, and a quarter to a half above the control has no call in these data; cut-offs in other NCI protocols can differ. Some T/C values are followed by the survivors on the day toxicity was checked, most often the fifth; without a count, all were alive then.
Test system: BDF1 mice, P388 leukemia ip, median survival T/C
Assay: NCI In Vivo Anticancer Drug Screen. Data for tumor model P388 Leukemia (intraperitoneal) in B6D2F1 (BDF1) mice
Details: T/C endpoint: median survival time, higher T/C = longer survival
Procedure, shortened: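 Reported as T/C, where T is the survival measurement in dosed animals and C the same measurement in vehicle controls.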

[1] = dose: 100.0 mg/kg/injection, schedule: Q01DX009 (ip), vehicle: saline with Tween-80
[2] = dose: 400.0 mg/kg/injection, schedule: Q04DX003 (ip), vehicle: saline with Tween-80
[3] = dose: 200.0 mg/kg/injection, schedule: Q04DX003 (ip), vehicle: saline with Tween-80

For `CN(CCOS(C)(=O)=O)CCOS(C)(=O)=O`, the survivor count (dose: 0.84 mg/kg/injection, schedule: Q01DX009 (ip), vehicle: saline) was 6 of 6, the T/C (dose: 0.99 mg/kg/injection, schedule: Q04DX003 (ip), vehicle: saline) was 140 % of control and the survivor count (dose: 1.12 mg/kg/injection, schedule: Q01DX009 (ip), vehicle: saline) was 6 of 6. For the same compound, the T/C (dose: 1.5 mg/kg/injection, schedule: Q04DX003 (ip), vehicle: saline) was 127 % of control, the survivor count (dose: 2.25 mg/kg/injection, schedule: Q01DX009 (ip), vehicle: saline) was 6 of 6 and the T/C (dose: 2.25 mg/kg/injection, schedule: Q04DX003 (ip), vehicle: saline) was 140 % of control. The survivor count (dose: 3.0 mg/kg/injection, schedule: Q04DX003 (ip), vehicle: saline) was 5 of 6, the survivor count (dose: 1.5 micrograms/kg/injection, schedule: Q01DX009 (ip), vehicle: saline) was 6 of 6 and the survivor count (dose: 3.6 micrograms/kg/injection, schedule: Q01DX009 (ip), vehicle: saline) was 0 of 6. The survivor count (dose: 5.4 micrograms/kg/injection, schedule: Q01DX009 (ip), vehicle: saline) was 0 of 6, the T/C (dose: 8.3 micrograms/kg/injection, schedule: Q01DX009 (ip), vehicle: saline) was 136 % of control and the T/C (dose: 12.5 micrograms/kg/injection, schedule: Q01DX009 (ip), vehicle: saline) was 138 % of control. For the same compound, the T/C (dose: 29.0 micrograms/kg/injection, schedule: Q01DX009 (ip), vehicle: saline) was 142 % of control.

In the case of `C1O[C@@H]1[C@@H]1CO1`, the T/C (dose: 200.0 mg/kg/injection, schedule: Q01DX010 (ip), vehicle: water) is reported as 127 % of control, the survivor count (dose: 503.0 mg/kg/injection, schedule: Q01DX010 (ip), vehicle: water) is reported as 6 of 6 and the survivor count (dose: 750.0 mg/kg/injection, schedule: Q01DX010 (ip), vehicle: water) is reported as 6 of 6.

With `Cc1ncc(-c2ccc([N+](=O)[O-])cc2)o1` the survivor count (dose: 50.0 mg/kg/injection, schedule: Q04DX003 (ip), vehicle: Klucel (hydroxypropylcellulose) (HPC)) was 5 of 5 and the survivor count (dose: 100.0 mg/kg/injection, schedule: Q04DX003 (ip), vehicle: Klucel (hydroxypropylcellulose) (HPC)) was 6 of 6.

With `O=c1[nH]c(=O)n(O)c2nc[nH]c12` the survivor count (dose: 115.0 mg/kg/injection, schedule: Q01DX009 (ip), vehicle: saline) was 4 of 6, the survivor count (dose: 150.0 mg/kg/injection, schedule: Q01DX001 (ip), vehicle: saline) was 1 of 6 and the survivor count (dose: 170.0 mg/kg/injection, schedule: Q01DX009 (ip), vehicle: saline) was 2 of 6.

In the case of `CCCCOC(=S)Nc1ccccc1`, the T/C (dose: 200.0 mg/kg/injection, schedule: Q01DX009 (ip), vehicle: other) is reported as 125 % of control.

In the case of `COC1CC(N=[N+]=[N-])C(OS(C)(=O)=O)C(C)O1` (stereo unspecified), the survivor count (dose: 50.0 mg/kg/injection, schedule: Q01DX009 (ip), vehicle: saline with Tween-80) is reported as 5 of 6, the survivor count [1] is reported as 5 of 6 and the survivor count (dose: 200.0 mg/kg/injection, schedule: Q01DX009 (ip), vehicle: saline with Tween-80) is reported as 5 of 6. The survivor count (dose: 400.0 mg/kg/injection, schedule: Q01DX009 (ip), vehicle: saline with Tween-80) was 5 of 6.

With `CCN(CC)CCCC(C)NC(=O)c1ccc(Cl)nc1` (stereo unspecified) the survivor count [1] was 6 of 6, the survivor count (dose: 300.0 mg/kg/injection, schedule: Q01DX009 (ip), vehicle: saline with Tween-80) was 2 of 6 and the survivor count [2] was 2 of 6.

For `Cc1ccc2c(C)c3ccc4ccccc4c3c[n+]2c1`, the T/C (dose: 10.0 mg/kg/injection, schedule: Q01DX009 (ip), vehicle: Klucel (hydroxypropylcellulose) (HPC)) was 127 % of control, the T/C (dose: 20.0 mg/kg/injection, schedule: Q01DX009 (ip), vehicle: Klucel (hydroxypropylcellulose) (HPC)) was 131 % of control and the T/C (dose: 37.5 mg/kg/injection, schedule: Q01DX009 (ip), vehicle: Klucel (hydroxypropylcellulose) (HPC)) was 140 % of control [5 of 6 alive]. For the same compound, the T/C (dose: 40.0 mg/kg/injection, schedule: Q01DX009 (ip), vehicle: Klucel (hydroxypropylcellulose) (HPC)) was 131 % of control, the survivor count (dose: 75.0 mg/kg/injection, schedule: Q01DX009 (ip), vehicle: Klucel (hydroxypropylcellulose) (HPC)) was 3 of 6 and the T/C (dose: 80.0 mg/kg/injection, schedule: Q01DX009 (ip), vehicle: Klucel (hydroxypropylcellulose) (HPC)) was 145 % of control. The T/C (dose: 80.0 mg/kg/injection, schedule: Q04DX003 (ip), vehicle: saline) was 140 % of control, the survivor count (dose: 150.0 mg/kg/injection, schedule: Q01DX009 (ip), vehicle: Klucel (hydroxypropylcellulose) (HPC)) was 5 of 6 and the T/C (dose: 160.0 mg/kg/injection, schedule: Q04DX003 (ip), vehicle: saline) was 136 % of control. For the same compound, the survivor count (dose: 300.0 mg/kg/injection, schedule: Q01DX009 (ip), vehicle: Klucel (hydroxypropylcellulose) (HPC)) was 4 of 6 and the survivor count (dose: 600.0 mg/kg/injection, schedule: Q01DX009 (ip), vehicle: Klucel (hydroxypropylcellulose) (HPC)) was 5 of 6.

With `CN(C)CCCNc1c2ccccc2nc2cccc([N+](=O)[O-])c12` the T/C (dose: 0.3 mg/kg/injection, schedule: Q04DX003 (ip), vehicle: saline) was 140 % of control.

`NNc1nncc2ccccc12` was tested, and the survivor count (dose: 100.0 mg/kg/injection, schedule: Q01DX009 (ip), vehicle: saline) was 0 of 6.

With `COc1ccc2c(c1)C(Cc1ccc(Oc3ccc(CC4c5cc(OC)ccc5CC[N+]4(C)C)cc3)cc1)[N+](C)(C)CC2` (stereo unspecified) the survivor count (dose: 0.78 mg/kg/injection, schedule: Q04DX003 (ip), vehicle: saline with Tween-80) was 6 of 6 and the survivor count (dose: 1.56 mg/kg/injection, schedule: Q04DX003 (ip), vehicle: saline with Tween-80) was 5 of 6.

With `c1ccc(C(c2ccccc2)[n+]2ccccc2)cc1` the T/C (dose: 6.25 mg/kg/injection, schedule: Q01DX009 (ip), vehicle: saline) was 125 % of control.

With `Nc1cc2nnc(-c3ccccc3)c(-c3ccccc3)n2n1` the survivor count (dose: 200.0 mg/kg/injection, schedule: Q04DX002 (ip), vehicle: saline with Tween-80) was 6 of 6.

In the case of `O=C(O)c1cc2ccccc2c2cc(Br)ccc12`, the survivor count [2] is reported as 6 of 6.

For `CCCCCCCCCCCCCCC(F)C(=O)OC` (stereo unspecified), the survivor count (dose: 200.0 mg/kg/injection, schedule: Q04DX003 (sc), vehicle: olive oil, sesame oil, peanut oil) was 5 of 6.

`CC1CCC2(C(=O)O)CCC3(C)C(=CCC4C5(C)CCC(O)C(C)(C)C5CCC43C)C2C1C` (stereo unspecified) was tested, and the survivor count (dose: 22.0 mg/kg/injection, schedule: Q01DX010 (ip), vehicle: saline with Tween-80) was 3 of 4, the survivor count (dose: 35.0 mg/kg/injection, schedule: Q01DX010 (ip), vehicle: saline with Tween-80) was 4 of 4 and the T/C (dose: 50.0 mg/kg/injection, schedule: Q01DX010 (ip), vehicle: acetone) was 125 % of control.

For `COc1cccn(C/C=C(\C)CCC=C(C)C)c1=O`, the survivor count [1] was 6 of 6, the survivor count (dose: 120.0 mg/kg/injection, schedule: Q01DX009 (ip), vehicle: saline with Tween-80) was 3 of 6 and the survivor count (dose: 160.0 mg/kg/injection, schedule: Q01DX009 (ip), vehicle: saline with Tween-80) was 0 of 6. For the same compound, the survivor count [3] was 3 of 6.

With `CC(C)CCC[C@@H](C)[C@H]1CC[C@H]2[C@@H]3CC=C4C[C@@H](O)CC[C@]4(C)[C@H]3CC[C@]12C` the survivor count (dose: 1600.0 mg/kg/injection, schedule: Q01DX009 (ip), vehicle: other) was 4 of 6.

For `O=C(Nc1ccc(CCNC2=NCCN2)cc1)c1ccc(C(=O)Nc2ccc(CCNC3=NCCN3)cc2)cc1`, the T/C (dose: 4.0 mg/kg/injection, schedule: Q01DX009 (ip), vehicle: saline) was 130 % of control.

`COC1=C(N)C(=O)c2nc(-c3nc(C(=O)O)c(C)cc3N)ccc2C1=O` was tested, and the T/C (dose: 0.02 mg/kg/injection, schedule: Q01DX009 (ip), vehicle: saline) was 132 % of control, the T/C (dose: 0.05 mg/kg/injection, schedule: Q01DX009 (ip), vehicle: saline) was 145 % of control and the T/C (dose: 0.1 mg/kg/injection, schedule: Q01DX009 (ip), vehicle: saline) was 125 % of control.

In the case of `Cc1cccc(Br)[n+]1[O-]`, the survivor count (dose: 50.0 mg/kg/injection, schedule: Q01DX009 (ip), vehicle: saline) is reported as 6 of 6, the survivor count (dose: 50.0 mg/kg/injection, schedule: Q04DX003 (ip), vehicle: saline) is reported as 6 of 6 and the survivor count (dose: 100.0 mg/kg/injection, schedule: Q01DX001 (ip), vehicle: saline) is reported as 6 of 6.

`NC(=S)N/N=C/c1ncccc1F` was tested, and the survivor count (dose: 100.0 mg/kg/injection, schedule: Q04DX003 (ip), vehicle: saline with Tween-80) was 2 of 6, the survivor count [3] was 1 of 6 and the survivor count [2] was 0 of 6.
